Test results as given in article PMC10492807.
These are yes or no findings as the source states them, for the method shown. Binding seen in cells or lysates may run through a third protein. For some of these results: Binding can be weak; no strength is given. For some of these results: Tags and fused reporters may be left off the sequences shown. Values belong to the molecule of their own block, whether it stands above or below them.

Tests used:
[1] = molecular target: T1, PBP2SAL-3xHA (Salmonella enterica serovar Typhimurium) (UniProt E1WGF1); assay: co-IP; in vivo cross-linking with DSP of wild-type background strains (PBP2SAL-3xHA plus a 3xFLAG-tagged D,D-CPase or FepA) grown in LB pH 4.6; NP-40 membrane extracts immunoprecipitated with anti-PBP2, anti-HA or anti-FLAG; gels with β-mercaptoethanol; Western blot
T1 sequence: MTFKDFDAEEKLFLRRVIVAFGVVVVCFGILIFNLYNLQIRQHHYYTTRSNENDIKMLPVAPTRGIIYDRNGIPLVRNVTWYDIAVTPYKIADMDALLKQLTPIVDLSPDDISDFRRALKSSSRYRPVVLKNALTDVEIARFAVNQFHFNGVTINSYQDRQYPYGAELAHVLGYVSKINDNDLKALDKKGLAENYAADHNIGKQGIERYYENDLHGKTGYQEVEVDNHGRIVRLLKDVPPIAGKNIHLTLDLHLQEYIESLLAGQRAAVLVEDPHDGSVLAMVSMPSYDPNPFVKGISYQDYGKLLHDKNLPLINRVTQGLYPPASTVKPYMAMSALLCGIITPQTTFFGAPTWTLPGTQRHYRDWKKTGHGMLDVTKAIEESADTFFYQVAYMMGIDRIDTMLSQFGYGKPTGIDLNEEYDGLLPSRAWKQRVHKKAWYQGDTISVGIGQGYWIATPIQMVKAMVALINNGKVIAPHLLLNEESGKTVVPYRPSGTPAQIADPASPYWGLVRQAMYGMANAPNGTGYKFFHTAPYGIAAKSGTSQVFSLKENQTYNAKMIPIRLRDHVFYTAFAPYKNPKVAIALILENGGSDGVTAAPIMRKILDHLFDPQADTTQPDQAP

[2] = molecular target: T2, PBP2SAL-3xFLAG (Salmonella enterica serovar Typhimurium) (UniProt E1WGF1); assay: co-IP; in vivo cross-linking with DSS (2.5 mM, PBS pH 8.0, 30 min RT) of bacteria grown in LB pH 4.6; NP-40 membrane extracts of WT, ΔmrdA and ΔPBP2SAL strains immunoprecipitated with anti-FLAG or anti-PBP2, protein G dynabeads; Western blot
T2 sequence: T1 sequence

[3] = molecular target: DacA-3xFLAG (Salmonella enterica serovar Typhimurium); assay: co-IP; in vivo cross-linking with DSP of wild-type background strains (PBP2SAL-3xHA plus a 3xFLAG-tagged D,D-CPase or FepA) grown in LB pH 4.6; NP-40 membrane extracts immunoprecipitated with anti-PBP2, anti-HA or anti-FLAG; gels with β-mercaptoethanol; Western blot
[4] = molecular target: DacB-3xFLAG (Salmonella enterica serovar Typhimurium); assay: as above
[5] = molecular target: DacC-3xFLAG (Salmonella enterica serovar Typhimurium); assay: as above
[6] = molecular target: DacD-3xFLAG (Salmonella enterica serovar Typhimurium); assay: as above

Molecule: DacA-3xFLAG (Salmonella enterica serovar Typhimurium) (enzyme)
binding [1]: binds

Molecule: DacC-3xFLAG (Salmonella enterica serovar Typhimurium) (enzyme)
binding [1]: binds

Molecule: DacD-3xFLAG (Salmonella enterica serovar Typhimurium) (enzyme)
binding [1]: binds

Molecule: FepA-3xFLAG (Salmonella enterica serovar Typhimurium)
binding [1]: no binding

Molecule: PBP2 (MrdA) (enzyme)
binding [2]: no binding

Other lines, results leading:

binding [1]: binds
Molecule: DacB-3xFLAG (Salmonella enterica serovar Typhimurium) (enzyme)

binding [3]: binds
binding [4]: binds
binding [5]: binds
binding [6]: binds
B1: PBP2SAL-3xHA (enzyme, UniProt E1WGF1 1-623)
chain: T1 sequence
